Source: article PMC11302878
Results are given in words; binding and its absence hold for the method and conditions named. In cells and extracts the contact can be indirect. Some binding calls cover weakened binding; strength is not graded here.

Sequences of proteins named here, by UniProt entry; tags and fusion partners are left off. Residues count along the entry.
UniProt P35222: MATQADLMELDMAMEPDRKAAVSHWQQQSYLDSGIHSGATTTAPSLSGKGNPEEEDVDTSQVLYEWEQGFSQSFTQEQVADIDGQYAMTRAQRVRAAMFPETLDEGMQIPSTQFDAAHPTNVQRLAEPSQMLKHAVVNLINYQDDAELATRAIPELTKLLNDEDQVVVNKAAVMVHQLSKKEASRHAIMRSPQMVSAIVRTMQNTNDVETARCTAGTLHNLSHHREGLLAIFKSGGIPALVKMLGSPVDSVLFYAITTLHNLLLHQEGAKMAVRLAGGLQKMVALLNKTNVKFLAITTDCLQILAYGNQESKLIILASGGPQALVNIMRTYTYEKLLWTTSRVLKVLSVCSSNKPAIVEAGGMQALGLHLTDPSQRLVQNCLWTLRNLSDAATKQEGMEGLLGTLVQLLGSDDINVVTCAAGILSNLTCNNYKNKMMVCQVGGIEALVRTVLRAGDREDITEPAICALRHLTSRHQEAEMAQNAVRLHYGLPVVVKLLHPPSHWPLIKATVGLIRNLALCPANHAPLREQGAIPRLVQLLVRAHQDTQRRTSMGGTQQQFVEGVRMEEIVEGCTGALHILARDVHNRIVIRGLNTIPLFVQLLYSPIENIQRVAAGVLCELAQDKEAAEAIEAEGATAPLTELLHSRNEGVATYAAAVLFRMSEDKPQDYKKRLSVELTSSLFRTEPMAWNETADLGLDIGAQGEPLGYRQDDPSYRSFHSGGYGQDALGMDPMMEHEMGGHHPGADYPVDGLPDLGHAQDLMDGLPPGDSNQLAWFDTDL
UniProt Q96FW1, residues 47-271: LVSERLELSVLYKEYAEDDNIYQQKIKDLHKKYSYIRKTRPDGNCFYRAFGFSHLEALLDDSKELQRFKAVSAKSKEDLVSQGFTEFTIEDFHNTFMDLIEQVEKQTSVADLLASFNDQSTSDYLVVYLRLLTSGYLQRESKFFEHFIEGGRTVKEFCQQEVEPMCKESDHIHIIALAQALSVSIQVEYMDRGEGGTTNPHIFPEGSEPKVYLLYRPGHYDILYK

Target: β-catenin (human (endogenous in T24 cisplatin-resistance cells)) (UniProt P35222)
Assay: co-IP; cells with OTUB1 or β-catenin domain fragments and point mutants (Fig. 5D-L); RIPA lysate and PMSF, antibody overnight at 4°C, western blot

- binding: binds
Substance: OTUB1 47-271 domain fragment (C-terminal OTU domain) (from UniProt Q96FW1 47-271) (domain or fragment)
